Reference: publication PMC6219715
These are yes or no findings as the source states them, for the method shown. In cells and extracts the contact can be indirect.

Experiments:
[1] = biological target: N-terminal HA-tagged Xrp1^Short (Drosophila melanogaster); assay: co-IP; S2 cells expressing actin5C-GAL4 alone or with tagged Xrp1^Short or Xrp1^Long; lysate on anti-Flag (M2) or anti-Caz (3F4) Protein G magnetic beads overnight at 4°C; immunoblot
[2] = biological target: N-terminal HA-tagged Xrp1^Long (Drosophila melanogaster); assay: as above

- binding [1]: no binding
- binding [2]: no binding
B1: Cabeza (Caz) (protein, UniProt Q27294 1-399)
chain: MERGGYGGGSGQGYNNFAVPPPNYQQMPNKTGNYNEPPPNYGKQGGGYDSGSGHRGSGGSGNGGGGGGSWNDRGGNSYGNGGASKDSYNKGHGGYSGGGGGGGGGGGGGSGGNDMITQEDTIFVSGMDPSTTEQDIETHFGAIGIIKKDKRTMKPKIWLYKNKETGASKGEATVTYDDTNAAQSAIEWFDGRDFNGNAIKVSLAQRQNNWNKGGGGGGGGGGRGGFGGRRGGGGGGGGGGGGGGRFDRGGGGGGGRYDRGGGGGGGGGGGNVQPRDGDWKCNSCNNTNFAWRNECNRCKTPKGDDEGSSGGGGGGGYGGGGGGGGYDRGNDRGSGGGGYHNRDRGGNSQGGGGGGGGGGGYSRFNDNNGGGRGGRGGGGGNRRDGGPMRNDGGMRSRPY
